## Library screening results

Sequences of proteins named here, by UniProt entry; tags and fusion partners are left off.
UniProt E9BF75, entry or part of it: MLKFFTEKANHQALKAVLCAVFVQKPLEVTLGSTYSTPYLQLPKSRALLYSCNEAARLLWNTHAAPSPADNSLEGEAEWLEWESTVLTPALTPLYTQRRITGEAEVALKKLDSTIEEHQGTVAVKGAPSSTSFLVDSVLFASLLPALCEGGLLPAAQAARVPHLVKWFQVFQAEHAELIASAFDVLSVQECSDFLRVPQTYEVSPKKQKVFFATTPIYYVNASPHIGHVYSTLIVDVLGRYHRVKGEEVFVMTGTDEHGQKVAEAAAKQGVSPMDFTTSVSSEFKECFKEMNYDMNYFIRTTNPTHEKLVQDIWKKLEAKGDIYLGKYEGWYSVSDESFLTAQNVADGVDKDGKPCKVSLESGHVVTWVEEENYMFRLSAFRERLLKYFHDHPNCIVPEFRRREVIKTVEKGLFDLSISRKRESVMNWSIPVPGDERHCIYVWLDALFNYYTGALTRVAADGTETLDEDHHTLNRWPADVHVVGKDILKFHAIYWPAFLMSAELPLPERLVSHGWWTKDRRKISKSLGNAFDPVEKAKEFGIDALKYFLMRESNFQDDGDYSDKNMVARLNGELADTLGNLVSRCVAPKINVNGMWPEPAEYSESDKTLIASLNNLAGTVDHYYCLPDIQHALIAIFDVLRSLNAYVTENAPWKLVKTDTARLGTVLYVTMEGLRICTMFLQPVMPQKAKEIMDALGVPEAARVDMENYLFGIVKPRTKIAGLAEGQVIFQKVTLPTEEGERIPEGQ

A: 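Primary screen of methionyl-tRNA synthetase; the read-out is not stated. Target: Methionyl-tRNA synthetase (putative), Leishmania donovani (UniProt E9BF75). The test concentration is not given. Values are per cent inhibition. Size under these conditions: about 68,000 compounds, about 24 of them at 50% or above in at least one test.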
B: 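Assay on Mycobacterium tuberculosis, filed only as a heat shock assay from Cornell; the read-out is not stated. The concentration is filed as 10 mM, unlikely as a test dose, so the dose is not known. Direction is inferred from retests: higher values go with stronger inhibition. Size under these conditions: about 69,000 compounds, about 930 of them at 50% or above in at least one test.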

Results are percentages, as filed.
The record does not define 0% and 100%; most values in the screen are far below 50% and negative numbers occur (in some assays of this library far below -100).
This is an unselected part of the compounds tested.
A dash means the value is not listed here; it may have been measured.

compound | A | B
O=C(O)C(F)(F)F.O=C(O)C(F)(F)F.[H][C@]12C[C@@H](Cn3cccn3)N(c3nccs3)[C@@]1([H])CCN(C(=O)CC)C2 | - | 39.82
CN1CCN(S(C)(=O)=O)c2ccc(F)cc21 | 11.28 | -4.3
COCCN1C[C@@H]2CN(Cc3cccc(F)c3)CCC[C@]2(C(=O)O)C1 | 4.902 | -
Cc1ccc(N2CCc3ncnc(C)c3CC2)nn1 | 7.792 | -21.51
C/C=C(\C)CN1C[C@H](NC(=O)c2cnc(O)cn2)C[C@H]1C(=O)NCC | 15.14 | 11.52
Cc1occc1C(=O)N1CCn2c(Cn3cncn3)cnc2C1C (stereo unspecified) | 3.014 | -24.41
COCCN1CCN(Cc2ccc(OCc3nccn3C)cc2)CC1 | 11.68 | -13.4
COCCN(Cc1cccs1)c1nc(CCN)nc2ccccc12 | 24.61 | 4.923
CNC(=O)c1cccc(NC(=O)NCc2ccccc2)c1C | 6.969 | 36.09
Cn1nc2c(cc1=O)CN(Cc1ccc(-n3cccn3)cc1)CC2 | 22.73 | -6.795
CC(C)n1cc(C(=O)N2CCC(n3cc(C(C)(C)C)nn3)CC2)cn1 | 15.66 | 1.8
Cn1cc(CN2CCC(F)(F)C3(CCN(c4cccnc4)C3)C2)cn1.O=C(O)C(F)(F)F.O=C(O)C(F)(F)F (stereo unspecified) | - | -16.92
Cc1sc2ncc(-c3ccnc(NC4CCN(C)CC4)n3)c(=O)n2c1C | 8.01 | -3.302
CN(Cc1nnc(C2CC2)o1)Cc1ccccc1-c1ccccc1 | 16.84 | 24.74
Cc1cccnc1C(NC(=O)CNC(=O)c1ccoc1C)C(C)C (stereo unspecified) | 5.108 | -7.19
Cc1ncn(CCNC(=O)Nc2ccc(OC(F)(F)F)cc2)c(=O)c1C | 12.15 | 10.69
Cn1nc(CNC(=O)c2cccc(C(F)(F)F)c2)c2c1CCOC2 | 10.38 | -16.98
Cc1ccc(-c2nc(C(=O)N3CCCC(C(N)=O)C3)cs2)c(C)c1 (stereo unspecified) | 11.75 | 18.23
Cc1noc(C)c1CN(C)C(=O)c1nc(N2CCCC2)ncc1Cl | 16.72 | -25.89
CCn1cnnc1CNC(=O)N1CCN(C(C)C)CC1 | 13.26 | -4.755
O=C(c1ccsc1)N1CCN2C[C@H](OCc3cccnc3)C[C@H]2C1 | 12.89 | -
COC(=O)c1cccn1C1CCN(C(=O)c2cc(F)ccc2F)CC1 | 11.74 | -5.17
Cc1cccn2cc(CNCc3cccc4c3OCCCO4)nc12 | 18.23 | 9.326
COc1ccc2[nH]cc(-c3ccnc(N4CCC(C)CC4)n3)c2c1 | 23.06 | 14.78
COC(=O)c1ccccc1NC(=O)c1c(C)cn(C)c1CC(=O)O | 5.077 | -15.12
Fc1cccc(-c2nnn3c2COCC(CNCc2nccs2)C3)c1.O=C(O)C(F)(F)F (stereo unspecified) | - | -7.204
O=C(c1cc2c(s1)CCC2)N1CCCC1Cn1cccn1 (stereo unspecified) | 5.307 | -0.6739
O=C(O)C(F)(F)F.[H][C@@]12CN(Cc3c(C)noc3C)C[C@]1([H])CN(C(=O)c1cnccn1)C2 | - | -25.17
CC(=O)NC(C)C1=CCCN(Cc2ccc(C(=O)O)cc2)C1 (stereo unspecified) | 12.39 | -15.95
CC(=O)NC(Cc1c[nH]c2cc(F)ccc12)C(=O)Nc1nncs1 (stereo unspecified) | 8.521 | -14.38
NC(=O)CC1CC2(CCNCC2)c2cc(F)ccc21.O=C(O)C(F)(F)F (stereo unspecified) | - | 15.23
CCS(=O)(=O)N1CCN(C(C)(C)CO)CC1 | 16.32 | 11.42
Cc1ccsc1C1CCCCCN1Cc1cn(C)nc1C (stereo unspecified) | 9.577 | 17.22
Oc1ccc(Cl)cc1CNCc1cccc(C(F)(F)F)c1 | 9.353 | 30.74
CN(C)C(=O)c1cnc2n1CCN(Cc1cccc(C#N)c1)C2 | 11.94 | -
CCn1nc(C)c(C(C)NC(=O)c2cccc(NCC(=O)O)c2)c1C (stereo unspecified) | -5.16 | 10.9
Cc1cc2ccncc2n1CC1(O)CCN(C(=O)c2cccnc2)CC1 | 16.83 | 8.809
CC(=O)NCCCC(=O)N1CCc2[nH]c(-c3ccccc3)nc2C1 | 22.5 | -20.23
CN(C)C(=O)c1ccc(C2CCCN2C(=O)c2ccccc2N(C)C)s1 (stereo unspecified) | 3.284 | -1.311
[H][C@@]12CCN(CCN3CCCC3)C[C@]1(C(=O)NCc1ccco1)CCO2 | - | 2.093
CC(NC(=O)CSCC(=O)Nc1ccccc1)c1ccccc1 (stereo unspecified) | 17.32 | 11.32
Cc1cccc(CN2C(=O)CCC23CCN(Cc2ccoc2)CC3)n1 | 4.808 | -10.69
O=C(c1ccccc1-n1cccn1)N1CCC(Nc2cccnn2)CC1 | 17.68 | 2.637
CCN1c2ccc(-c3cncn3CCCn3ccnc3C)cc2CC1C (stereo unspecified) | 29.25 | -
Cc1nnsc1-c1nnc2sc(C3CCC3)nn12 | -4.348 | 5.918
CC(C)NC(=O)c1cc2c(nc1N(C)C)CCN(S(=O)(=O)C1CC1)CC2 | 8.904 | -13.86
Cc1nc([C@H]2C[C@@H]3CCN(Cc4scnc4C)C[C@H]3O2)no1 | 7.904 | -
[H][C@@]12C[C@H](C(=O)N(C)C)[C@@]([H])(CN(S(=O)(=O)c3ccccc3)C1)O2 | - | -2.028
Cn1cc(CN2CCCN(C(=O)c3sccc3C#N)CC2)cn1 | 22.82 | -17.19
COc1ncccc1C(=O)N1CCCC1c1nc(-c2ccccc2)no1 (stereo unspecified) | 13.19 | -1.997
O=C(O)C(F)(F)F.[H][C@]12CCN(Cc3ccc(CC)o3)C[C@@]1([H])OCCN(S(C)(=O)=O)C2 | - | -28.06
O=C(NCCNc1cnccn1)N1CC=C(c2ccc(O)cc2)CC1 | 14.29 | -11.05
COC(=O)C1CCCCN1Cc1cccc(C(=O)NCc2ccco2)c1 (stereo unspecified) | 12.57 | -26.66
O=C(C1CCC1)N1CCO[C@H]2[C@H](OCCCn3cccn3)CC[C@@H]21 | -3.562 | -
Cc1noc(C)c1CN1CC2(CCN(C(=O)c3c[nH]cn3)C2)CC1=O (stereo unspecified) | 13.81 | -7.103
O=C1NCC2(CCN(C(=O)c3ccc4c(c3)CCCO4)CC2)O1 | 10.51 | -7.538
CS(=O)(=O)NC1CCCN(c2ccc(C#N)cn2)C1 (stereo unspecified) | 8.052 | -0.01891
Cc1cnn(CC(C)NCc2ccc(-n3cccn3)cc2)c1 (stereo unspecified) | -3.472 | -29.42
CCc1ccc(C2NCCc3cc4c(cc32)OCCO4)cc1 (stereo unspecified) | 8.919 | 5.457
CC(C)C1CN(S(C)(=O)=O)CCCN1Cc1ccc(F)cc1 (stereo unspecified) | 3.621 | -13.11
[H][C@]12CC[C@](O)(c3ccccc3F)[C@@]1([H])CN(C(=O)c1cc(C3CC3)n[nH]1)C2 | - | -4.78
Cc1ncc(-c2ccnc(N3CCCCCC3)n2)c(-c2cccnc2)n1 | -4.196 | -17.86
O=C(NC1COC2(CCN(Cc3cccs3)CC2)C1)c1ccccn1.O=C(O)C(F)(F)F (stereo unspecified) | - | 21.57

Repeated from the top, 8 entries:

{"compound": "O=C(O)C(F)(F)F.O=C(O)C(F)(F)F.[H][C@]12C[C@@H](Cn3cccn3)N(c3nccs3)[C@@]1([H])CCN(C(=O)CC)C2", "B": 39.82}
{"compound": "CN1CCN(S(C)(=O)=O)c2ccc(F)cc21", "A": 11.28, "B": -4.3}
{"compound": "COCCN1C[C@@H]2CN(Cc3cccc(F)c3)CCC[C@]2(C(=O)O)C1", "A": 4.902}
{"compound": "Cc1ccc(N2CCc3ncnc(C)c3CC2)nn1", "A": 7.792, "B": -21.51}
{"compound": "C/C=C(\\C)CN1C[C@H](NC(=O)c2cnc(O)cn2)C[C@H]1C(=O)NCC", "A": 15.14, "B": 11.52}
{"compound": "Cc1occc1C(=O)N1CCn2c(Cn3cncn3)cnc2C1C", "stereo": "stereo unspecified", "A": 3.014, "B": -24.41}
{"compound": "COCCN1CCN(Cc2ccc(OCc3nccn3C)cc2)CC1", "A": 11.68, "B": -13.4}
{"compound": "COCCN(Cc1cccs1)c1nc(CCN)nc2ccccc12", "A": 24.61, "B": 4.923}

Data taken from ChEMBL document CHEMBL3988442, “University of Dundee, Small-Polar-MMV Screening Library” (2021).